Experimental data as given in PubChem BioAssay AID2685 (National Center for Advancing Translational Sciences (NCATS), 2010).
Some of the results follow. These are further read-outs of the screen, such as a control signal, another cell line or another target. No call is given for them. Compounds called inactive in the main read-out are mostly missing here. Potencies come from curve fits of mixed quality, noted in brackets.

Assay: qHTS Assay for Lipid Storage Modulators in Drosophila S3 Cells;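 as to cell number change: cells counted by Cell Tracker Red CMTPX staining in the red channel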
Conditions: BODIPY lipid droplet fluorescence, 18-24 h; for cell number change: measured here: cell count max response, cells fed with added oleic acid
Procedure, shortened: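 Drosophila S3 cells loaded with oleic acid (400 uM, as added) and compounds at several concentrations; lipid droplets imaged by 488-nm laser-scanning cytometry, 500–530 nm intensity and object ratio to cell channel. Percent activity normalized to 20 uM Triacsin C.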

[1] = measured here: lipid fluorescence (Fed channel) AC50, cells fed with added oleic acid
[2] = measured here: cell number channel AC50, cells fed with added oleic acid

| SMILES | cell number change [%] | AC50 [1] | AC50 [2] |
| --- | --- | --- | --- |
| COc1ccc(CNC(=O)CC2C(=O)NCCN2C2Cc3ccccc3C2)cc1 (centres undefined) | 21.3 | – | – |
| CCOC(=O)c1ccc2c(c1)nc(COc1ccccc1C#N)n2CC | 21.6 | 0.103 µM [rising, full curve] | – |
| C=C(C)Cn1c(COc2ccccc2)nnc1SCC(=O)O | -15.9 | 1.03 µM [falling, full curve, poor fit] | – |
| Cc1cc2nc(C)n(CCCNC(=O)Nc3cccc4ccccc34)c2cc1C | – | – | 6.51 µM [rising, single point] |
| COc1ccc2[nH]c(=O)c(CNc3ccccc3OC)cc2c1 | -24.2 | 0.00461 µM [rising, full curve, poor fit] | – |
| C=CCNC(=S)NNC(=O)c1cccnc1 | -31.9 | 29.1 µM [falling, single point] | 6.51 µM [falling, full curve, poor fit] |
| O=C(Nc1nnc(-c2ccco2)o1)c1ccc(S(=O)(=O)N2CCOCC2)cc1 | -1.56 | – | 0.092 µM [rising, full curve, poor fit] |
| NNc1nc2cc3c(cc2s1)OCCO3 | 10.4 | 6.51 µM [falling, partial curve, poor fit] | – |
| Cc1ccc(C(=O)Nc2ccc3c(c2)C(=O)N(C)C3=O)c(C)c1 | 5.69 | 3.66 µM [rising, full curve] | – |
| COc1ccccc1CNC(=O)C1CCN(C(=O)[C@@H]2Cc3ccccc3CN2)CC1 | -13.7 | – | – |
| CCCCOc1ccc(C2C3CN(C(=O)OCC)CC=C3C(C#N)=C(N)C2(C#N)C#N)cc1OC (centres undefined) | -25.5 | 0.58 µM [rising, single point] | – |
| FCCCOc1ccc(-c2nccc(-c3ccc(Cl)cc3)n2)cc1 | 38.7 | 20.6 µM [rising, single point] | 20.6 µM [rising, single point] |
| CCOc1ccc(C(C)=O)cc1N1C(=O)C2C3C=CC(C3)C2C1=O (centres undefined) | 6.28 | 29.1 µM [rising, single point] | – |
| O=C(/C=C/C(=O)N1CCc2ccccc2C1)N1CCc2ccccc2C1 | -26.1 | – | – |
| CCC(C)n1c(=O)c(C(=O)Nc2ccccc2S(N)(=O)=O)c(O)c2ccccc21 (centres undefined) | -5.99 | 0.92 µM [falling, full curve] | – |
| N#CNc1nc(O)cc(=O)[nH]1 | 27.4 | – | – |
| O=C(Cc1n[nH]c(=O)c2ccccc12)NC(c1ccccc1)c1ccccc1 | 8.49 | 13 µM [rising, partial curve] | – |
| CC1(C)CCCC2=C1CC1C(=O)N(O)C(=O)C1C2 (centres undefined) | 1.41 | – | – |
| O=C1COc2ccc(C(=O)COC(=O)CNS(=O)(=O)c3cccc(F)c3)cc2N1 | -27.3 | 29.1 µM [rising, single point] | 2.91 µM [falling, full curve, poor fit] |
| Cc1ccc(OCCN2CCN(C)CC2)c([N+](=O)[O-])c1 | -0.402 | – | – |
| CCCC(=O)O[C@]1(C(=O)CO)CC[C@H]2[C@@H]3CCC4=CC(=O)CC[C@]4(C)[C@H]3[C@@H](O)C[C@@]21C | 11.6 | 0.146 µM [rising, full curve, poor fit] | – |

| SMILES | cell number change [%] | AC50 [1] | AC50 [2] |
| --- | --- | --- | --- |
| Cc1nn(CC(=O)NCC2CCCO2)c(=O)c2cc3ccccc3n12 (centres undefined) | -6.11 | 29.1 µM [falling, single point] | – |
| Cc1c(CCC(=O)NC2CC2)c(=O)oc2c(C)c(O)ccc12 | -31.4 | – | 13 µM [falling, partial curve, poor fit] |
| c1ccc(CNc2nc3ccccc3n3cnnc23)nc1 | 4.03 | 6.51 µM [rising, partial curve, poor fit] | – |
| COc1ccc(-c2nn(-c3ccccc3)cc2/C=C/C(=O)O)cc1[N+](=O)[O-] | -10.8 | 0.92 µM [falling, full curve, poor fit] | – |
| Cc1ccc(C(C(=O)NCc2ccc(F)cc2)N(Cc2ccco2)C(=O)c2snc(C(N)=O)c2N)o1 (centres undefined) | – | 29.1 µM [falling, single point] | – |
| COc1ccc(C(=O)CSc2nc3ncccc3[nH]2)cc1OC | 7.6 | 5.8 µM [rising, partial curve, poor fit] | – |
| CCNC(=O)COC(=O)Cc1ccc(Cl)cc1Cl | -2.04 | 2.06 µM [rising, partial curve] | – |
| Cn1c(N)c(C(=O)COC(=O)c2cc(-c3ccco3)nc3ccccc23)c(=O)n(C)c1=O | -44.6 | 4.11 µM [rising, full curve] | 18.4 µM [falling, single point] |
| Cc1cc(C(=O)N/N=C\c2cc(C(C)(C)C)ccc2O)n[nH]1 | -29.7 | – | – |
| N=c1c(C(=O)NCc2ccc(F)cc2)cc2c(=O)n3ccccc3nc2n1CCCN1CCOCC1 | 14.3 | 0.184 µM [rising, full curve, poor fit] | – |
| CCc1cc2c(=O)c(-c3ccon3)c(N)oc2cc1OC | -5.73 | 0.291 µM [rising, full curve, poor fit] | – |
| c1coc(C2=Nc3cccc4cccc(c34)N2)c1 | -11.2 | 3.26 µM [falling, partial curve] | 6.51 µM [falling, single point] |
| CCC1(CC)NC(=O)N(CC(=O)OCc2nc3cc(C(=O)OC)ccc3c(=O)[nH]2)C1=O | -7.52 | – | 5.17 µM [falling, single point] |
| O=C(c1cc(-c2cccs2)on1)N1CCOCC1 | -1.29 | 4.61 µM [falling, full curve, poor fit] | – |
| Nc1nnnn1/N=C/c1cc(Cl)ccc1O | 5.41 | – | 2.91 µM [rising, partial curve] |
| CCOC(=O)c1ccc2[nH]c3c(c2c1)CCCC3NC=O (centres undefined) | 22.3 | 0.58 µM [falling, single point] | – |
| COc1ccccc1CCNC(=O)CCNS(=O)(=O)c1ccc(NC(C)=O)cc1 | 14.6 | 0.103 µM [falling, full curve, poor fit] | – |
| CC(C(=O)NCCN1CCOCC1)c1ccc([N+](=O)[O-])cc1 (centres undefined) | -0.455 | 0.058 µM [falling, full curve, poor fit] | 4.61 µM [falling, single point] |
| NC(=O)C1CCN(C(=O)Cc2ccsc2)CC1 | 29.7 | – | – |
| C=CCOc1c(Cl)cc(CNc2ccc(N(C)C)cc2)cc1OC | -56.4 | 23.1 µM [falling, single point] | 25.9 µM [falling, partial curve] |
| COc1ccc(C(=O)NC(=C(Cl)Cl)S(=O)(=O)c2ccc(C)cc2)cc1 | -6.9 | 8.2 µM [falling, partial curve, poor fit] | – |

Some of the entries so far, with bars between the fields.
SMILES | cell number change [%] | AC50 [1] | AC50 [2]
Cc1nn(CC(=O)NCC2CCCO2)c(=O)c2cc3ccccc3n12 (centres undefined) | -6.11 | 29.1 µM [falling, single point] | –
COc1ccc(C(=O)CSc2nc3ncccc3[nH]2)cc1OC | 7.6 | 5.8 µM [rising, partial curve, poor fit] | –
CCNC(=O)COC(=O)Cc1ccc(Cl)cc1Cl | -2.04 | 2.06 µM [rising, partial curve] | –
Cn1c(N)c(C(=O)COC(=O)c2cc(-c3ccco3)nc3ccccc23)c(=O)n(C)c1=O | -44.6 | 4.11 µM [rising, full curve] | 18.4 µM [falling, single point]
Cc1cc(C(=O)N/N=C\c2cc(C(C)(C)C)ccc2O)n[nH]1 | -29.7 | – | –
N=c1c(C(=O)NCc2ccc(F)cc2)cc2c(=O)n3ccccc3nc2n1CCCN1CCOCC1 | 14.3 | 0.184 µM [rising, full curve, poor fit] | –
CCc1cc2c(=O)c(-c3ccon3)c(N)oc2cc1OC | -5.73 | 0.291 µM [rising, full curve, poor fit] | –
c1coc(C2=Nc3cccc4cccc(c34)N2)c1 | -11.2 | 3.26 µM [falling, partial curve] | 6.51 µM [falling, single point]
CCC1(CC)NC(=O)N(CC(=O)OCc2nc3cc(C(=O)OC)ccc3c(=O)[nH]2)C1=O | -7.52 | – | 5.17 µM [falling, single point]
O=C(c1cc(-c2cccs2)on1)N1CCOCC1 | -1.29 | 4.61 µM [falling, full curve, poor fit] | –
Nc1nnnn1/N=C/c1cc(Cl)ccc1O | 5.41 | – | 2.91 µM [rising, partial curve]
COc1ccccc1CCNC(=O)CCNS(=O)(=O)c1ccc(NC(C)=O)cc1 | 14.6 | 0.103 µM [falling, full curve, poor fit] | –
NC(=O)C1CCN(C(=O)Cc2ccsc2)CC1 | 29.7 | – | –
C=CCOc1c(Cl)cc(CNc2ccc(N(C)C)cc2)cc1OC | -56.4 | 23.1 µM [falling, single point] | 25.9 µM [falling, partial curve]
COc1ccc(C(=O)NC(=C(Cl)Cl)S(=O)(=O)c2ccc(C)cc2)cc1 | -6.9 | 8.2 µM [falling, partial curve, poor fit] | –

The results go on.

| SMILES | cell number change [%] | AC50 [1] | AC50 [2] |
| --- | --- | --- | --- |
| COc1ccc(/C=C2\CCC(C3CCCC3)C2=O)c(OC)c1 (centres undefined) | -18.4 | 29.1 µM [falling, single point] | – |
| CCC1C(=NO)C(CC)C(c2ccccc2)NC1c1ccccc1 (centres undefined) | -41.5 | 18.4 µM [falling, single point] | 23.1 µM [falling, single point] |
| COc1ccc(NC(=O)c2ccco2)cc1NC(=O)c1c(F)c(F)c(OC)c(F)c1F | 49 | 29.1 µM [rising, single point] | 3.26 µM [rising, full curve] |
| CCN(c1ccccc1)S(=O)(=O)c1ccc(OCC(=O)Nc2cc(C)on2)cc1 | 51 | – | 4.11 µM [rising, full curve] |
| COC(=O)C(C(=O)OC)c1ccccc1[N+](=O)[O-] | -13.9 | 2.31 µM [falling, full curve, poor fit] | – |
| O=C1CC(NC(=O)C(F)(F)F)c2cc3c(cc21)OCO3 (centres undefined) | -29.9 | – | – |
| CCCC(=O)NC1=C(C#N)C2(CCCCC2)Cc2ccccc21 | -6.59 | – | – |
| Cc1cc(NC(=O)CCC(=O)N(CC(=O)NCC2CCCO2)c2cccc(C)c2C)no1 (centres undefined) | 12.5 | 1.16 µM [falling, single point] | – |
| O=C(NNC(=O)C1CC1)c1ccc(-c2ccccc2)cc1 | 56.4 | 4.61 µM [falling, single point] | 9.2 µM [rising, partial curve, poor fit] |
| CC(C)Oc1ccc(N2C(=O)c3ccccc3C2=O)cc1 | – | 5.17 µM [falling, partial curve] | – |
| O=C(NCc1ccco1)c1ccccc1-c1ccccc1 | – | – | 0.146 µM [falling, full curve] |
| COCc1[nH][nH]c(=O)c1/C=N/N1CCOCC1 | -17.8 | – | – |
| C/C(Nc1ccccc1)=C(/C#N)C(N)=O | 32.1 | – | 29.1 µM [rising, single point] |
| O=C(CN(CC1CCCO1)C(=O)CNS(=O)(=O)c1ccc(F)cc1)NCC1CCCO1 (centres undefined) | 7.69 | 0.103 µM [rising, partial curve, poor fit] | – |
| COc1ccc(NS(=O)(=O)/C=C/c2ccccc2)cc1 | -9.26 | – | – |
| CC1=C(C(=O)NCCCOC(C)C)C2(CCC(C)CC2)OC1=O (centres undefined) | -10.4 | 10.3 µM [falling, partial curve] | – |
| Cc1noc(C(=O)N2CCN(c3ccccc3)CC2)c1Cl | -5.19 | 0.58 µM [rising, full curve, poor fit] | – |
| CCOc1ccc(NCc2nnc(SCC(=O)Nc3cc(C)on3)n2-c2ccc(OC)cc2)cc1 | 26.3 | – | 0.366 µM [rising, partial curve, poor fit] |
| O=C(COc1ccc(F)cc1Br)N1CCc2ccccc21 | -55.9 | 1.84 µM [falling, partial curve] | 3.66 µM [falling, partial curve] |
| COc1cccc(-c2cc(C(=O)Nc3cc(C)nn3-c3ccccc3)no2)c1 | 20.3 | – | 0.00411 µM [rising, full curve, poor fit] |
